Construct, isoform or probe ends are uncertain for at least one entry. For some assays here: No signal at the amounts used counts as a negative. For some assays here: At least one result comes from cells or an extract, where the contact may be indirect. For some assays here: At least one verdict rests on a figure or table, not on a statement of the authors.
Tests used:
Sp1 [1] = biological target: Sp1 (UniProt P08047); assay: EMSA with antibody; conditions: SH-SY5Y nuclear extract, anti-Sp1 reduces shifted band; EMSA with IRDye800 probe as described previously (ref 26), buffer not given; antibody incubation 30 min at 4 C; protein in an extract; label: IRDye800 (probe), unlabeled as competitor
recombinant DJ-1 = recombinant DJ-1 (UniProt Q99497); assay: EMSA; conditions: 100 ng recombinant DJ-1 alone; EMSA with IRDye800 probe as described previously (ref 26), buffer not given; antibody incubation 30 min at 4 C; recombinant protein; label: IRDye800 (probe), unlabeled as competitor
RREB1 + DJ-1 [2] = assay: EMSA supershift; conditions: SH-SY5Y nuclear extract, anti-RREB1 supershift, anti-DJ-1 altered shift; EMSA with IRDye800 probe as described previously (ref 26), buffer not given; antibody incubation 30 min at 4 C; protein in an extract; label: IRDye800 (probe), unlabeled as competitor
RREB1 + DJ-1 [3] = assay: competition with a labelled probe; conditions: 50x and 100x unlabeled mutant vs labeled N1, SH-SY5Y nuclear extract, proteins identified by antibodies in Fig. 3D; EMSA with IRDye800 probe as described previously (ref 26), buffer not given; antibody incubation 30 min at 4 C; protein in an extract; label: unlabeled competitor
Sp1 [4] = biological target: Sp1 (UniProt P08047); assay: competition with a labelled probe; conditions: 50x and 100x unlabeled mutant vs labeled N1, SH-SY5Y nuclear extract, protein identified by antibody in Fig. 3D; EMSA with IRDye800 probe as described previously (ref 26), buffer not given; antibody incubation 30 min at 4 C; protein in an extract; label: unlabeled competitor

Chains of the proteins cited; added tags and fusions are not shown.
UniProt P08047, whole entry: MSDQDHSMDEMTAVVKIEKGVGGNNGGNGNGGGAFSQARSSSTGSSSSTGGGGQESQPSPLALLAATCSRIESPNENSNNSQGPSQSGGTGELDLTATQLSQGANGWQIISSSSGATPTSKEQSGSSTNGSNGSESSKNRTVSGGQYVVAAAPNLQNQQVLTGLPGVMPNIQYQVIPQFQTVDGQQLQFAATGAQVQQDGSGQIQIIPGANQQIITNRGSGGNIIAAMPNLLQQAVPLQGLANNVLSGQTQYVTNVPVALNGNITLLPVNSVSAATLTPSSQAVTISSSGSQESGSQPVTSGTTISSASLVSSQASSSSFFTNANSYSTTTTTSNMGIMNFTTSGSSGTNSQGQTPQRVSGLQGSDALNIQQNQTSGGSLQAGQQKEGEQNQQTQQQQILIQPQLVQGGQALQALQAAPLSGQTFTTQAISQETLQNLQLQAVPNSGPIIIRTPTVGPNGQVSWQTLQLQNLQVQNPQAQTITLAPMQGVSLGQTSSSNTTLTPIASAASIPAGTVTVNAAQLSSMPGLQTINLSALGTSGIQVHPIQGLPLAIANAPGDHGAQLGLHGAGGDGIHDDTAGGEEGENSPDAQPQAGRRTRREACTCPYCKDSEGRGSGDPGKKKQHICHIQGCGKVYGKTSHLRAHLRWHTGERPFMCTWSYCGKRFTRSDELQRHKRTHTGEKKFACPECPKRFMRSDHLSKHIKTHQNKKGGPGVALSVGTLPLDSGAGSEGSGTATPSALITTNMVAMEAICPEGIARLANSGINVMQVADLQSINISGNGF
UniProt Q99497, whole entry: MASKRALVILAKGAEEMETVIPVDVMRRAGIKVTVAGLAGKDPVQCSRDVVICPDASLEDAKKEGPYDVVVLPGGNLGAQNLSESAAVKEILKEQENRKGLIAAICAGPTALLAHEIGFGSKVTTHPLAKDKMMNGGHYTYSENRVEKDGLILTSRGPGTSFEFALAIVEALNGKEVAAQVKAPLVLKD

GCCGCCCCCCCAACCCCCCCACCCCGCCTC (double strand) [hRRE (CCK promoter RRE/Sp1, wild type)]
binding result (Sp1 [1]): binds
binding result (recombinant DJ-1): no binding
binding result (RREB1 + DJ-1 [2]): binds

GCCGCCCCCCCGGCCCCCCCACCCCTCTTC (double strand) [hRREm (mutated RRE and Sp1)]
binding result (RREB1 + DJ-1 [3]): no binding
binding result (Sp1 [4]): no binding
